{"source": "PubChem BioAssay AID540276", "about": "(National Center for Advancing Translational Sciences (NCATS), 2011)", "note": "Out of some 300,000 compounds screened, about 5,400 (1.8%) were called active. This list was built around the results that the source calls inconclusive (neither active nor inactive); the mix of calls is not that of the screen. Calls come from the whole dose curve; tested in HEK293 cells. Where the call is inconclusive, the potency comes from a doubtful curve fit. Potency is the fitted concentration of half-maximal effect."}
{"assay": "qHTS for inhibitors of binding or entry into cells for Marburg Virus", "conditions": "Marburg virus pseudotyped entry inhibition, cell reporter; series mostly up to 37.8 µM"}
{"smiles": "Cc1cc(C)c(NC(=O)CCCN2C(=O)COc3ccc(C)cc32)c(C)c1", "Potency": "inconclusive: 3.55 µM [inhibitor, partial curve, poor fit]"}
{"smiles": "COC(=O)C1C=CC(OC2OC(COC(C)=O)C(OC(C)=O)C(OC(C)=O)C2OC(C)=O)n2c(=O)n(-c3ccccc3)c(=O)n21", "note": "(stereo unspecified)", "Potency": "inconclusive: 22.4 µM [inhibitor, partial curve, poor fit]"}
{"smiles": "CCOC(=O)C1=C(CNCCc2ccc(Cl)cc2)NC(=O)NC1c1cccc([N+](=O)[O-])c1", "note": "(stereo unspecified)", "Potency": "inconclusive: 35.5 µM [inhibitor, single point]"}
{"smiles": "Cc1ccc(NC(=O)/C(=C\\c2cccnc2)NC(=O)c2ccccc2)cc1", "Potency": "inconclusive: 35.5 µM [activator, partial curve, poor fit]"}
{"smiles": "O=C(CSc1ncccn1)N/N=C/c1ccccc1[N+](=O)[O-]", "Potency": "inactive"}
{"smiles": "COCCCn1c(N)c(C(=O)NCCC(C)C)c2nc3ccccc3nc21", "Potency": "inconclusive: 29.1 µM [inhibitor, single point]"}
{"smiles": "Cc1c(-c2ccccc2)c(-c2ccc(OCCN(C)C)cc2)n2ccccc12", "Potency": "inconclusive: 25.1 µM [inhibitor, partial curve, poor fit]"}
{"smiles": "COc1ccc(NC(=O)CN(C)C(=O)c2ccccc2OCC(=O)Nc2cccc(C(F)(F)F)c2)cc1", "Potency": "inactive"}
{"smiles": "Cc1nn2cc(-c3cccc(Cl)c3)cnc2c1Br", "Potency": "inconclusive: 0.562 µM [inhibitor, full curve, poor fit]"}
{"smiles": "CC(NC(c1ccccc1)c1ccccc1)C(=O)N1CCCc2ccccc21", "note": "(stereo unspecified)", "Potency": "inactive"}
{"smiles": "CC(NC(=O)c1cc2c(cc1Cl)N1CCCCCC1=NS2(=O)=O)c1ccc(S(N)(=O)=O)cc1", "note": "(stereo unspecified)", "Potency": "inconclusive: 0.447 µM [inhibitor, single point]"}
{"smiles": "CCc1ccccc1NC(=O)N[C@@H](C)C(=O)O", "Potency": "inactive"}
{"smiles": "COc1ccccc1N1CCN(S(=O)(=O)c2c(C)sc3ncn(CC(=O)Nc4ccc(C(F)(F)F)cc4)c(=O)c23)CC1", "Potency": "inactive"}
{"smiles": "COC(=O)CN(C(=S)Nc1ccc(Cl)cc1)C1CC(=O)N(c2ccc(OC)cc2)C1=O", "note": "(stereo unspecified)", "Potency": "inactive"}
{"smiles": "Cc1ccc(-c2ccc(=O)n(CC(=O)N3CCN(c4cccc(C)c4)C(C)C3)n2)cc1", "note": "(stereo unspecified)", "Potency": "inactive"}
{"smiles": "Cc1sc(NC(=O)CSc2nnc(-c3ccccc3)o2)c(C#N)c1C", "Potency": "inconclusive: 18.3 µM [inhibitor, partial curve, poor fit]"}
{"smiles": "CC(NC(=O)c1ccc2c(=O)n3c(nc2c1)CCCCC3)c1ccccc1", "note": "(stereo unspecified)", "Potency": "inconclusive: 35.5 µM [inhibitor, single point]"}
{"smiles": "O=C(N1CCOCC1)N1CCC(NC(=O)C23CC4CC(CC(C4)C2)C3)CC1", "Potency": "inconclusive: 0.316 µM [activator, partial curve, poor fit]"}
{"smiles": "O=C(NNc1ccccc1F)c1ccccc1", "Potency": "inconclusive: 0.631 µM [inhibitor, full curve, poor fit]"}
{"smiles": "COc1ccc(C(=O)Nc2ccc(C(=O)N3CCCCC3)cc2)cc1OC", "Potency": "inconclusive: 0.316 µM [inhibitor, full curve, poor fit]"}
{"smiles": "CCOc1ccc(S(=O)(=O)N(CC(=O)N2CCc3ccccc32)Cc2ccco2)cc1", "Potency": "inconclusive: 35.5 µM [inhibitor, single point]"}
{"smiles": "Cc1nc2nc(-c3ccc(Cl)cc3Cl)nn2c(C)c1CCC(=O)Nc1ccc(F)cc1", "Potency": "inactive"}
{"smiles": "COc1ccc(N(CC(=O)N/N=C/c2ccc(OC3CSC3)cc2)S(=O)(=O)c2ccccc2)cc1", "Potency": "inconclusive: 35.5 µM [inhibitor, single point]"}
{"smiles": "O=C(Cn1cnc2ccccc2c1=O)N1CCOCC1", "Potency": "inconclusive: 35.5 µM [inhibitor, single point]"}
{"smiles": "CCC(=O)OCCNc1cc(Sc2nccn2C)c2nonc2c1[N+](=O)[O-]", "Potency": "inconclusive: 15.8 µM [inhibitor, single point]"}
{"smiles": "Cc1cccc(C(=O)Nc2ccc(C(=O)N/N=C/c3ccc4c(c3)OCO4)cc2)c1", "Potency": "inconclusive: 7.08 µM [inhibitor, partial curve, poor fit]"}
{"smiles": "COc1ccc(CNC(=S)Nc2cccc(C)c2)cc1", "Potency": "inconclusive: 6.31 µM [activator, single point]"}
{"smiles": "COc1nc(N)c(S(=O)(=O)c2ccccc2)cc1C#N", "Potency": "inconclusive: 16.4 µM [activator, single point]"}
{"smiles": "COc1ccc(-c2c(C)nn3c4c(cnc23)C(=O)CC(c2ccccc2)C4)cc1", "note": "(stereo unspecified)", "Potency": "inactive"}
{"smiles": "Cc1c(C(=O)NCc2ccc(F)cc2)c(-c2ccccc2)nn1-c1ccccc1", "Potency": "inactive"}
{"smiles": "O=C(Nc1ccc(OC(F)(F)F)cc1)c1ccc2ccccc2n1", "Potency": "inactive"}
{"smiles": "CSc1ccc(C(=O)C2CCCN(C(=O)c3nn(C)c(=O)c4ccccc34)C2)cc1", "note": "(stereo unspecified)", "Potency": "inconclusive: 7.08 µM [inhibitor, partial curve]"}
{"smiles": "COc1cccc(C(=O)NNC2=C(C(=O)C(F)(F)F)CCC2)c1", "Potency": "inconclusive: 22.4 µM [inhibitor, partial curve, poor fit]"}
{"smiles": "N=Cc1c(O)n(-c2ccc(C34CC5CC(CC(C5)C3)C4)cc2)c(=O)[nH]c1=O", "Potency": "inactive"}
{"smiles": "Cc1ccc(C(=O)N2c3ccccc3N(Cc3ccccc3)C(=O)C2(C)C)cc1", "Potency": "inconclusive: 9.2 µM [inhibitor, partial curve]"}
{"smiles": "Cc1c(C(=O)OCC(=O)NC2CC2)oc2ccc(Br)cc12", "Potency": "inactive"}
{"smiles": "CC1CC(C)CN(CC(=O)Nc2ccc(S(N)(=O)=O)cc2)C1", "note": "(stereo unspecified)", "Potency": "inactive"}
{"smiles": "O=C(/C=C/c1ccccc1[N+](=O)[O-])NCC1CCCO1", "note": "(stereo unspecified)", "Potency": "inconclusive: 0.316 µM [activator, full curve, poor fit]"}
{"smiles": "COc1cc(-c2nnc(-c3ccco3)o2)ccc1OCc1ccccc1", "Potency": "inactive"}
{"smiles": "O=C(N/N=C/c1ccccc1OC(F)F)NC1CCCCC1", "Potency": "inconclusive: 35.5 µM [inhibitor, single point]"}
{"smiles": "CC(C)C[C@@H](CO)NS(=O)(=O)c1c(F)cccc1F", "Potency": "inconclusive: 11.2 µM [activator, single point]"}
{"smiles": "COc1ccc(/C=N/Nc2ncnc(Cl)c2N)cc1OC", "Potency": "inactive"}
{"smiles": "COc1cc(C2c3c(oc4ccccc4c3=O)C(=O)N2c2nncs2)cc(OC)c1OC", "note": "(stereo unspecified)", "Potency": "inactive"}
{"smiles": "CN(CCCN1CCCCC1)C(=O)CCc1nnc(C2CCCCC2)o1", "Potency": "inconclusive: 35.5 µM [inhibitor, single point]"}
{"smiles": "O=C(NCc1ccc(S(=O)(=O)Nc2ccccc2Cl)s1)c1ccccc1", "Potency": "inconclusive: 5.62 µM [inhibitor, single point]"}
{"smiles": "CCOc1ccc(C(=O)n2cc(C(=O)OC)c3ccccc32)cc1OCC", "Potency": "inconclusive: 5.62 µM [inhibitor, partial curve, poor fit]"}
{"smiles": "CCCCOc1ccc(C(=O)CCN2CCCCC2)cc1", "Potency": "inconclusive: 1.84 µM [inhibitor, partial curve]"}
{"smiles": "COc1ccc(NC(=O)C2CCN(c3cnccn3)CC2)cc1OC", "Potency": "inactive"}
{"smiles": "CCCc1ccc(OCc2ccc(C(=O)N/N=C/c3cccc([N+](=O)[O-])c3)o2)c(OC)c1", "Potency": "inconclusive: 10 µM [inhibitor, partial curve]"}
{"smiles": "COc1ccc(N/N=C(/C#N)S(=O)(=O)C(C)(C)C)cc1", "Potency": "inconclusive: 35.5 µM [activator, single point]"}
{"smiles": "Cn1c(=O)cc(OCC(=O)NCCCN2CCN(c3cccc(Cl)c3)CC2)c2ccccc21", "Potency": "inconclusive: 9.2 µM [inhibitor, single point]"}
{"smiles": "CCOC(=O)c1c(NC(=O)COC(=O)c2ccccc2NC)sc(C(=O)N(C)C)c1C", "Potency": "inconclusive: 15.8 µM [inhibitor, partial curve, poor fit]"}
{"smiles": "Nc1nc(NCCCN2CCOCC2)nc(NCc2ccccc2)c1[N+](=O)[O-]", "Potency": "inconclusive: 14.1 µM [inhibitor, partial curve, poor fit]"}
{"smiles": "Cc1ccc(SCC(=O)N2CCOCC2)cc1", "Potency": "inconclusive: 1.12 µM [activator, full curve, poor fit]"}
{"smiles": "O=C(CN1C(=O)/C(=C/c2ccccc2Cl)SC1=S)NC1C=CS(=O)(=O)C1", "note": "(stereo unspecified)", "Potency": "inconclusive: 11.2 µM [inhibitor, partial curve, poor fit]"}
{"smiles": "Cc1nc(N2CCOCC2)nc(N2CCCCC2)c1[N+](=O)[O-]", "Potency": "inconclusive: 6.31 µM [activator, single point]"}
{"smiles": "Cc1onc(-c2c(F)cccc2Cl)c1C(=O)N1CCCc2ccccc21", "Potency": "inconclusive: 17.8 µM [inhibitor, single point]"}
{"smiles": "CC(=O)Nc1ccc(S(=O)(=O)N2CCN(C(=O)N3CCCCCC3)CC2)cc1", "Potency": "inconclusive: 0.1 µM [activator, full curve, poor fit]"}
{"smiles": "C[C@H](NC(=O)C1(c2ccccc2)CCN(C(=O)[C@H]2CSCN2C(=O)OC(C)(C)C)CC1)C(=O)O", "Potency": "inconclusive: 0.58 µM [activator, single point]"}
{"smiles": "Cc1ccc(S(=O)(=O)N(C)CC(=O)OCc2nnc(-c3ccccc3)o2)cc1", "Potency": "inactive"}
{"smiles": "COc1ccccc1/C=N\\N=C(\\N)c1ccccn1", "Potency": "inconclusive: 32.6 µM [inhibitor, single point]"}
{"smiles": "CCOc1ccc(C(=O)N/N=C/c2cccc3cccnc23)cc1", "Potency": "inconclusive: 10 µM [inhibitor, single point]"}
{"smiles": "CN(C)/C=C(/C#N)C(=O)c1cccc(Oc2ccc(C(C)(C)C)cc2)c1", "Potency": "inconclusive: 35.5 µM [inhibitor, single point]"}
{"smiles": "COc1cc(C(=O)Nc2ccc(S(=O)(=O)N(C)c3ccccc3)cc2)cc(OC)c1OC", "Potency": "inconclusive: 35.5 µM [inhibitor, single point]"}
{"smiles": "O=S(=O)(O/N=C1\\CCCc2ccccc21)c1ccccc1", "Potency": "inactive"}
{"smiles": "S=C(c1ccc(-c2cc(Cl)ccc2Cl)o1)N1CCOCC1", "Potency": "inconclusive: 3.66 µM [inhibitor, partial curve, poor fit]"}
